Results are given in words; binding and its absence hold for the method and conditions named. In cells and extracts the contact can be indirect. These calls come from enrichment with a bait or labelling near it, and not all partners need be listed.
Molecular target: EhVps35C (E. histolytica (endogenous in HM1:IMSS trophozoites))
Experiment: affinity purification with mass spectrometry; immunoprecipitates of trophozoite lysate with α-EhVps35 antibodies, digested, UPLC and Synapt G2-Si HDMSE; hits chosen by comparison with earlier proteomes of the actin cytoskeleton

B1: Profilin 1 (protein, UniProt P49230 1-130)
chain: MSWQSYVDSFLVGAGKGMGGAIIGLQGGVWAASANCTPSAQESVAIGTACASNIAGLQQTGVVIGGKKYMITRVDADEGTAMGKKGAEGISIYKTKQAVIIGYFSDASVSAGQNSDATYKCAKYLMDAGY
binding: binds
